Results are given in words; binding and its absence hold for the method and conditions named. Binding seen in cells or lysates may run through a third protein. Some results given as binding are weak or reduced against the parent protein; the word gives no strength. For some assays here: Tags and fused reporters may be left off the sequences shown.

Sequences of proteins named here, by UniProt entry; tags and fusion partners are left off.
UniProt Q04206: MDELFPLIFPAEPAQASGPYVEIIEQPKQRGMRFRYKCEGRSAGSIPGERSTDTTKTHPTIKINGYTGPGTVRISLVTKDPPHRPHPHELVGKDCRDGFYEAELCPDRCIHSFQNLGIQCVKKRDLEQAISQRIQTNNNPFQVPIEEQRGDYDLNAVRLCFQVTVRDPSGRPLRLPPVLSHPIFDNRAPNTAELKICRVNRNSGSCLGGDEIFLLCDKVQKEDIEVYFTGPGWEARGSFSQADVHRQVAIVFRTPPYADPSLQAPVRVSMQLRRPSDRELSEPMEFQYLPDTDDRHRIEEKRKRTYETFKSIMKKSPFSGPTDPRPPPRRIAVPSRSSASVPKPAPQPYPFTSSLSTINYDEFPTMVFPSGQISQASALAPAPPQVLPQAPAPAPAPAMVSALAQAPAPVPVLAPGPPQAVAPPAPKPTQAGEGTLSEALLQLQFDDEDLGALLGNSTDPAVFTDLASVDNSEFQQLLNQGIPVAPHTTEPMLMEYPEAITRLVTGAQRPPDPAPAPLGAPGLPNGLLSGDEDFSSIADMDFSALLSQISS

For assay [1], the target named is T1, BAF nuclear assembly factor 1 (BANF1) (human (endogenous in NCM460 and Caco2)) (UniProt O75531).
T1 sequence: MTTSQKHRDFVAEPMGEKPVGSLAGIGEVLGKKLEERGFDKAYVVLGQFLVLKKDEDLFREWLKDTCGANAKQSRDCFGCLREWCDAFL
Put plainly: co-IP; lysates of NCM460 cells; IP by anti-BANF1 or anti-p65 antibody, control IgG; Protein A/G magnetic beads; western blot.

Assay [2] has as its target T2, FLAG-tagged TMIGD1 (transmembrane and immunoglobulin domain-containing protein 1) (UniProt Q6UXZ0).
T2 sequence: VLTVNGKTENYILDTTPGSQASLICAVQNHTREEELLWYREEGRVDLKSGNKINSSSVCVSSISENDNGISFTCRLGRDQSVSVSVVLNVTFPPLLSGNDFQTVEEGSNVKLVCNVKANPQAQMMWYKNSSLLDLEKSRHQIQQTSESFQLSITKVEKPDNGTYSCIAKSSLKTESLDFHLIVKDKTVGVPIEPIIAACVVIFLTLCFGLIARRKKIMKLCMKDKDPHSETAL
Put plainly: co-IP; lysates of NCM460 cells transfected with lentivirus overexpressing FLAG-tagged TMIGD1; IP by anti-FLAG or anti-BANF1 antibody, control IgG; antibody at 4°C overnight, Protein A/G magnetic beads; western blot. Background: Immunoblotting shows a protein as a band on a membrane.

For p65 (from UniProt Q04206 1-551), in assay [1], the binding entry was “binds”.

B1: BAF nuclear assembly factor 1 (BANF1) (protein, UniProt O75531 1-89)
chain: MTTSQKHRDFVAEPMGEKPVGSLAGIGEVLGKKLEERGFDKAYVVLGQFLVLKKDEDLFREWLKDTCGANAKQSRDCFGCLREWCDAFL
Regarding B1, the binding result in assay [2] is “binds”.

Source of the values: paper PMC10403950.
